This assay has as its target GST-Grb2 (UniProt P62993). In words: pull-down; GST-Grb2 beads with cell extracts of virulent T. annulata-infected macrophages; endogenous AGO2 and PTP1B detected by western blot; only the target purified. In general terms: A western blot detects proteins with antibodies after separation by electrophoresis.

Chains of the proteins cited; added tags and fusions are not shown.
UniProt P62993: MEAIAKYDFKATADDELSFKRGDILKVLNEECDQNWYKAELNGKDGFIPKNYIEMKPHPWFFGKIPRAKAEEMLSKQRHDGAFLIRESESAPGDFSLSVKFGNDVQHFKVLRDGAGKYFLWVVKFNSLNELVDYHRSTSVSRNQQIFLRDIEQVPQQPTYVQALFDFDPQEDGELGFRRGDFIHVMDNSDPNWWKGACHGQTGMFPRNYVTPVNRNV
UniProt Q6QME8: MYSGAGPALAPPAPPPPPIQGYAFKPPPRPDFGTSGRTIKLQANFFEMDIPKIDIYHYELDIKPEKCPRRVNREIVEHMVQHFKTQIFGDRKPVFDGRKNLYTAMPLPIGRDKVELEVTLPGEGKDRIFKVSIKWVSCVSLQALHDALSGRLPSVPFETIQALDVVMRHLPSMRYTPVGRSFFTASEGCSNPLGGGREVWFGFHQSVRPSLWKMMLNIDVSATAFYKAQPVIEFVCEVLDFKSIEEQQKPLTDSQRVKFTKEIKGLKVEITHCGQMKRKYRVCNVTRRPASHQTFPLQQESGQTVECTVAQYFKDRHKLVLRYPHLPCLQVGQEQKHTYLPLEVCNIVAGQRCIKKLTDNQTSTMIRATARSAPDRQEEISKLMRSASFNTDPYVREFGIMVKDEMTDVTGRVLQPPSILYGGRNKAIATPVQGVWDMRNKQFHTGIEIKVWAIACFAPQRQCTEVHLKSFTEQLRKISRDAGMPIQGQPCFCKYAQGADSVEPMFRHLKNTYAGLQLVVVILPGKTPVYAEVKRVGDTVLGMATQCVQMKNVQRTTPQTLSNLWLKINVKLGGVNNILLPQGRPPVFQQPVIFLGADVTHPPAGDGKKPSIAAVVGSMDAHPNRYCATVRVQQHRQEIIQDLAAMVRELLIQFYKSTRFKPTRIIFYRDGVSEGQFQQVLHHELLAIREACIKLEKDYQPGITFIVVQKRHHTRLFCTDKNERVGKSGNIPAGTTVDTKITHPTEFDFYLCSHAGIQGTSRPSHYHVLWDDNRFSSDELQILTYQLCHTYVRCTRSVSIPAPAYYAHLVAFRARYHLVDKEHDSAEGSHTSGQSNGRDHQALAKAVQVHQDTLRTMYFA

Results are given in words; binding and its absence hold for the method and conditions named. In cells and extracts the contact can be indirect. Some binding calls cover weakened binding; strength is not graded here.

As to AGO2 (from UniProt Q6QME8 1-860), the binding entry is on record as “binds”.

These data come from article PMC5892942.
